This note sets out measurements from article doi:10.1101/2023.02.03.526966.

No constants are given. Whether binding was seen depends on the method and setting. Binding seen in cells or lysates may run through a third protein. Some entries that bind do so weakly or less than the wild type. Where a sequence is shown, tags or fusion partners need not be part of it.

Assay [1] has as its target T1, HA-ePTPRδ-Myc (extracellular domain of human PTPRδ fused to the PDGF receptor transmembrane domain) (human) (UniProt P23468).
T1 sequence: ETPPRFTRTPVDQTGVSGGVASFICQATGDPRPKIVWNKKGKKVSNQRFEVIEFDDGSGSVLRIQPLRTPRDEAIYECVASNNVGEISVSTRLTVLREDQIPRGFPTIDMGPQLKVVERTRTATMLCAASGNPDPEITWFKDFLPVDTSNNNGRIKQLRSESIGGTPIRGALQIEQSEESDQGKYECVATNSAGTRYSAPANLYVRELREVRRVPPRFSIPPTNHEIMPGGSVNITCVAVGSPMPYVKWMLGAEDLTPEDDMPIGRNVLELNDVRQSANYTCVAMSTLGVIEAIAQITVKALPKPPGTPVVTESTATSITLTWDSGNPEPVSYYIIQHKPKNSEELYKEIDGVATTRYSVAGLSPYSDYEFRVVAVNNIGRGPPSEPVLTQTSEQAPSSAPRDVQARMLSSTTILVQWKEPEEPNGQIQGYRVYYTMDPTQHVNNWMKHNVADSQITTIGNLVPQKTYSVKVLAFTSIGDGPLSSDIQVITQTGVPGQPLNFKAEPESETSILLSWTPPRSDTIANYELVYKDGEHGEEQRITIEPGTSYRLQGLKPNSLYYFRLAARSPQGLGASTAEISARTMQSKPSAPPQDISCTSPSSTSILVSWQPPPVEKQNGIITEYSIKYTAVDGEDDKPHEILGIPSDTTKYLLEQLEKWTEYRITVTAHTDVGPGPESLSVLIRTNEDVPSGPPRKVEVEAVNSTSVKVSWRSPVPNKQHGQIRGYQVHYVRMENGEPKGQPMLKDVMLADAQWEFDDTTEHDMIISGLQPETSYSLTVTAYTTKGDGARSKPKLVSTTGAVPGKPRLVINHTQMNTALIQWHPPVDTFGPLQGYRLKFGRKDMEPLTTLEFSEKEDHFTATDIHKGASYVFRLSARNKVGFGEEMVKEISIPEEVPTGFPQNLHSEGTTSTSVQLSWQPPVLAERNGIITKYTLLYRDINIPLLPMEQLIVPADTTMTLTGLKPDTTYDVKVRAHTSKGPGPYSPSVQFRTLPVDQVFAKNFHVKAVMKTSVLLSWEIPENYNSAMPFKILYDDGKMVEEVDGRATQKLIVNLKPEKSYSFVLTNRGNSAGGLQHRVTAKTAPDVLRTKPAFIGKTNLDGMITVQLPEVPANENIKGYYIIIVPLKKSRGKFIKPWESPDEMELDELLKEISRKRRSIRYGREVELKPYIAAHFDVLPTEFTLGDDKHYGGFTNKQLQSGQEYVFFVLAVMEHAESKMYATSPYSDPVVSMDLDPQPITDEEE
The assay is described as follows: co-IP.

The target of assay [2] is T2, HA-eLAR-Myc (extracellular domain of human LAR fused to the PDGF receptor transmembrane domain) (human) (UniProt P10586).
T2 sequence: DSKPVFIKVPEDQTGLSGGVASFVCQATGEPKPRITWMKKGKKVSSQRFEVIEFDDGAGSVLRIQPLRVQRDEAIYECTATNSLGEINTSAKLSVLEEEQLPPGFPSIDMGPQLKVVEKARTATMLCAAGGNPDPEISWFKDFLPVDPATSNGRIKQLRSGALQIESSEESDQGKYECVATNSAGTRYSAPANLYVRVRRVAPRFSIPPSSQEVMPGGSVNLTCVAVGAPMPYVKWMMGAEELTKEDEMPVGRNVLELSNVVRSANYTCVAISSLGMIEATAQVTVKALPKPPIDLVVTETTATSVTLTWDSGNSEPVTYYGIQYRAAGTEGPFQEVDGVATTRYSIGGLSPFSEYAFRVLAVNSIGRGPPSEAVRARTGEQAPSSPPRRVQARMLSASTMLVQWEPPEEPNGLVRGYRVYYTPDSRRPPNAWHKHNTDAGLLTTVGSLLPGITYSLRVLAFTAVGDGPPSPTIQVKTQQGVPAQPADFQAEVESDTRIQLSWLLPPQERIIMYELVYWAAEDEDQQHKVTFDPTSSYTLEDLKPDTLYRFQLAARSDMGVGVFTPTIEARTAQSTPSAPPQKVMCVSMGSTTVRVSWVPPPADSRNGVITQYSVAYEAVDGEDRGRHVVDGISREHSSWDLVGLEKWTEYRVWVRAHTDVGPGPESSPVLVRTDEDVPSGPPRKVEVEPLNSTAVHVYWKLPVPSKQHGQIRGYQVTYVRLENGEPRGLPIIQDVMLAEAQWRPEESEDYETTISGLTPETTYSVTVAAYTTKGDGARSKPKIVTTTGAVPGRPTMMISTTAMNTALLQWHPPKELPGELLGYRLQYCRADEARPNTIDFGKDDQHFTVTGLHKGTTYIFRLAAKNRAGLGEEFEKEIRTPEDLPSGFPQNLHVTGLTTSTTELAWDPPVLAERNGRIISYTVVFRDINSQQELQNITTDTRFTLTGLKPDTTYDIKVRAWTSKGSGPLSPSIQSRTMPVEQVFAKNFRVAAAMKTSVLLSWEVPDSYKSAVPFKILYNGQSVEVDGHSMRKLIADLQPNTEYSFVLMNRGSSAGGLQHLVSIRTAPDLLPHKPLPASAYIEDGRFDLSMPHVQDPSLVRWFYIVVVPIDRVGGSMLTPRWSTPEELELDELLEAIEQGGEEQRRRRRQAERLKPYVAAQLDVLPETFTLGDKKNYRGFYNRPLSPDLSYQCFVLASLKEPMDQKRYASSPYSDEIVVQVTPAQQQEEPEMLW
Description: co-IP.

B1: mouse nidogen-2 (protein, UniProt O88322 31-1403)
chain: LRPDELFPYGESWGDQLLPEGDDESSAAVKLAIPLRFYDAQFSSLYVGTNGIISTQDFPRETQYVDDDFPTDFPAIAPFLADIDTSHSRGRILYREDTSGAVLSLAARYVRTGFPLSGSSFTPTHAFLATWEHVGAYEEVSRGAAPSGELNTFQAVLASDESDTYALFLYPANGLQFFGTRPKESYNVQLQLPARVGFCRGEADDLKREALYFSLTNTEQSVKNLYQLSNLGIPGVWAFHIGSRFALDNVRPATVGGDPSTARSSALEHPFSHAAALESYTEDSFHYYDENEEDVEYPPVEPGEAPEGHSRIDVSFNSKADPGLVDVGTSSPGSDRASPWPYPAPGNWPSYRETESASLDPQTKQGRPVGEGEVLDFRDPAELLDQMGTRAPAPPEADAALLTPVNEDLGGRNTQSYPEAGPVPSEPDVPVPPLEGEVLPHYPESGHVPPLRGGKYVIGLEDHVGSNDQVFTYNGANLETCEHSHGRCSQHAFCTDYTTGFCCHCQSRFYGNGKHCLPEGAPHRVNGKVSGRLRVGHIPVHFTDVDLHAYIVGNDGRAYTAISHVPQPAAQALLPVLPIGGLFGWLFALEKPGSENGFSLTGATFVHDVEVTFHPGEERVRITQTAEGLDPENYLSIKTNIEGQVPFIPANFTAHITPYKEFYHYRDSVVTSSSSRSFSLTSGSINQTWSYHIDQNITYQACRHAPRHLAIPATQQLTVDRAFALYSEDEGVLRFAVTNQIGPVEVDSAPVGVNPCYDGSHTCDTTARCHPGTGVDYTCECTPGFQGDGRSCVDVNECATGFHRCGPNSVCVNLVGSYRCECRSGYEFADDQHTCILIAPPPNPCLDGSHTCAPEGQARCIHHGGSSFSCACLPGFIGTGHQCSDVDECAENRCHEAAICYNTPGSFSCRCQPGYRGDGFHCTSDTVPEDSISGLKPCEYQQRYAQTQHAYPGSRIHIPQCDDQGNFVPLQCHGSTGFCWCVDRNGHEVPGTQTPPGSTPPHCGPPPEPTQRPRTVCERWRESLLEHYGGTPRDDQYVPQCDDLGHFIPLQCHGKSDFCWCVDKDGRELQGTRSQPGTRPACIPTVAPPVVRPTPRPDVTPPSVGTFLLYAQGQQIGHLPLNGSRLQKDAARTLLSLHGSIVVGIDYDCRERMVYWTDVAGRTISRASLEAGAEPETIITSGLISPEGLAIDHFRRTMYWTDSGLDKIERAELDGSERKVLFHTDLVNPRAITVDPIRGNLYWTDWNREAPKIETSSLDGENRRILINKDIGLPNGLTFDPFSKLLCWADAGTKKLECTLPDGTGRRVIQNHLNYPFSIVSYADHFYHTDWRRDGVISVNKDSGQFTDEFLPEQRSHLYGITAVYPYCPTGRK
For the molecule B1, the binding entry in assay [1] and in assay [2] was “binds” each time.

B2: mouse nidogen-1 (protein, UniProt P10493 29-1245)
chain: LNRQELFPFGPGQGDLELEAGDDVVSPSLELIGELSFYDRTDITSVYVTTNGIIAMSEPPATEYHPGTFPPSFGSVAPFLADLDTTDGLGNVYYREDLSPFIIQMAAEYVQRGFPEVSFQPTSVVVVTWESVAPYGGPSSSPAEEGKRNTFQAVLASSNSSSYAIFLYPEDGLQFFTTFSKKDESQVPAVVGFSKGLVGFLWKSNGAYNIFANDRESIENLAKSSNAGHQGVWVFEIGSPATAKGVVSADVNLDLDDDGADYEDEDYDLVTSHLGLEDVATPSPSHSPRRGYPDPHNVPRILSPGYEATERPRGVPTERTRSFQLPAERFPQHHPQVIDVDEVEETGVVFSYNTGSQQTCANNRHQCSVHAECRDYATGFCCRCVANYTGNGRQCVAEGSPQRVNGKVKGRIFVGSSQVPVVFENTDLHSYVVMNHGRSYTAISTIPETVGYSLLPLAPIGGIIGWMFAVEQDGFKNGFSITGGEFTRQAEVTFLGHPGKLVLKQQFSGIDEHGHLTISTELEGRVPQIPYGASVHIEPYTELYHYSSSVITSSSTREYTVMEPDQDGAAPSHTHIYQWRQTITFQECAHDDARPALPSTQQLSVDSVFVLYNKEERILRYALSNSIGPVRDGSPDALQNPCYIGTHGCDSNAACRPGPGTQFTCECSIGFRGDGQTCYDIDECSEQPSRCGNHAVCNNLPGTFRCECVEGYHFSDRGTCVAAEDQRPINYCETGLHNCDIPQRAQCIYMGGSSYTCSCLPGFSGDGRACRDVDECQHSRCHPDAFCYNTPGSFTCQCKPGYQGDGFRCMPGEVSKTRCQLEREHILGAAGGADAQRPTLQGMFVPQCDEYGHYVPTQCHHSTGYCWCVDRDGRELEGSRTPPGMRPPCLSTVAPPIHQGPVVPTAVIPLPPGTHLLFAQTGKIERLPLERNTMKKTEAKAFLHIPAKVIIGLAFDCVDKVVYWTDISEPSIGRASLHGGEPTTIIRQDLGSPEGIALDHLGRTIFWTDSQLDRIEVAKMDGTQRRVLFDTGLVNPRGIVTDPVRGNLYWTDWNRDNPKIETSHMDGTNRRILAQDNLGLPNGLTFDAFSSQLCWVDAGTHRAECLNPAQPGRRKVLEGLQYPFAVTSYGKNLYYTDWKTNSVIAMDLAISKEMDTFHPHKQTRLYGITIALSQCPQGHNYCSVNNGGCTHLCLPTPGSRTCRCPDNTLGVDCIERK
As to B2, the binding entry in assay [1] and in assay [2] was “binds” each time.
